Values joined by “and” are separate entries in the source; they are usually repeats but may differ in a detail not shown here. Equal values may be shown once. The list shows a part of the results. Each value is one well over the wells without odorant, computed here; the data are noisy.
test system: OR1L6 Q23K/C150Y/I215T/R221Q/M223I/G234R clone 1539; test: odorant receptor activation (CRE luciferase / Renilla) (fold of no-odor wells); higher = more activation; details: 100 µM

Compound | odorant receptor activation
CCCCCCCCC=O [nonyl aldehyde] | 0.858
CC12C=CCC1C1CCC3CC(=O)CCC3(C)C1CC2 (stereo not drawn) [androstenone] | 1.14
CCCCCCCCOC(C)=O [octyl acetate] | 0.972
COc1ccccc1O [guaiacol] | 0.801 and 0.963
CC(=O)OCC=C(C)CCC=C(C)C [geranyl acetate] | 1.04 and 1.16
CC1COCc2cc3c(cc21)C(C)(C)C(C)C3(C)C (stereo not drawn) [galaxolide] | 1.83 and 3.94
C=CCc1ccc(OC)c(OC)c1 [eugenol methyl ether] | 0.924
CC(=O)OC1CC2CCC1(C)C2(C)C (stereo not drawn) [isobornyl acetate] | 1.09 and 1.08
O=C1CCCCCCCCCCCC(=O)OCCO1 [ethylene brassylate] | 0.831
CC(C)(C)c1ccc(CCC=O)cc1 [bourgeonal] | 1.11
CCC1(O)C2(C)CCC(C2)C1(C)C (stereo not drawn) [2-ethylfenchol] | 1.46
CC12CCC(CC1)C(C)(C)O2 [cineole] | 1.02
CC=Cc1ccc(O)c(OC)c1 [isoeugenol] | 1.13 and 1.63
c1cnccn1 [pyrazine] | 0.78
C=C(C)C1CC=C(C)C(=O)C1 (stereo not drawn) [r-carvone] | 0.915
C=CC(C)(O)CCC=C(C)C (stereo not drawn) [linalool] | 0.847
CC(C)=CCCC(C)=CC=O [citral] | 1.12
CCCCCC(=O)O [caproic acid] | 1.03
CCCCCCOC(=O)CCC [hexyl butyrate] | 0.963 and 0.865
CC1CCC(C(C)C)C(O)C1 (single isomer, unassigned; (+)) [(+)-menthol] | 1.31
CC(C)CCC(=O)O [4-methylvaleric acid] | 1.1
CC12C=CCC1C1CCC3=CC(=O)CCC3(C)C1CC2 (stereo not drawn) [androstadienone] | 0.683 and 1.25

test system: OR1L8 clone 1088; test: as above; details: 100 µM

Compound | odorant receptor activation
CCCCCCCCC=O [nonyl aldehyde] | 1.02
CC12C=CCC1C1CCC3CC(=O)CCC3(C)C1CC2 (stereo not drawn) [androstenone] | 1.21
CCCCCCCCOC(C)=O [octyl acetate] | 0.855
CCCCCC(C)=O [2-heptanone] | 0.432
COc1ccccc1O [guaiacol] | 1.02
CC(=O)OCC=C(C)CCC=C(C)C [geranyl acetate] | 1.24
CC1COCc2cc3c(cc21)C(C)(C)C(C)C3(C)C (stereo not drawn) [galaxolide] | 1.73
C=CCc1ccc(OC)c(OC)c1 [eugenol methyl ether] | 1.64
CC(=O)OC1CC2CCC1(C)C2(C)C (stereo not drawn) [isobornyl acetate] | 1.24
O=C1CCCCCCCCCCCC(=O)OCCO1 [ethylene brassylate] | 1.65
O=C1CCCCC1 [Cyclohexanone] | 0.839
CC(C)(C)c1ccc(CCC=O)cc1 [bourgeonal] | 1.32
CCC1(O)C2(C)CCC(C2)C1(C)C (stereo not drawn) [2-ethylfenchol] | 2.3
COC(=O)c1ccccc1 [methyl benzoate] | 1.21
CC12CCC(CC1)C(C)(C)O2 [cineole] | 0.892
CC1=NC(C)SC1C (stereo not drawn) | 1.39
CC=Cc1ccc(O)c(OC)c1 [isoeugenol] | 1.18
CCCCCOC(C)=O [n-amyl acetate] | 1.87
c1cnccn1 [pyrazine] | 1.09
C=C(C)C1CC=C(C)C(=O)C1 (stereo not drawn) [r-carvone] | 0.899
C=CC(C)(O)CCC=C(C)C (stereo not drawn) [linalool] | 1.16
CC(C)=CCCC(C)=CC=O [citral] | 1.43
CC(=O)c1ccccc1 [acetophenone] | 0.828
CCCCCC(=O)O [caproic acid] | 1.11
CCCCCCOC(=O)CCC [hexyl butyrate] | 0.604
CC1CCC(C(C)C)C(O)C1 (single isomer, unassigned; (+)) [(+)-menthol] | 1.48
CC(C)CCC(=O)O [4-methylvaleric acid] | 1.36
CC12C=CCC1C1CCC3=CC(=O)CCC3(C)C1CC2 (stereo not drawn) [androstadienone] | 5.56

test system: OR1M1 clone 1198; test: as above; details: 100 µM

Compound | odorant receptor activation
CCCCCCCCC=O [nonyl aldehyde] | 1.23
CC12C=CCC1C1CCC3CC(=O)CCC3(C)C1CC2 (stereo not drawn) [androstenone] | 4.61
CCCCCCCCOC(C)=O [octyl acetate] | 1.15
CCCCCC(C)=O [2-heptanone] | 1.32
COc1ccccc1O [guaiacol] | 1.26
CC(=O)OCC=C(C)CCC=C(C)C [geranyl acetate] | 1.16
CC1COCc2cc3c(cc21)C(C)(C)C(C)C3(C)C (stereo not drawn) [galaxolide] | 0.915
C=CCc1ccc(OC)c(OC)c1 [eugenol methyl ether] | 2.01
CC(=O)OC1CC2CCC1(C)C2(C)C (stereo not drawn) [isobornyl acetate] | 1.36
O=C1CCCCCCCCCCCC(=O)OCCO1 [ethylene brassylate] | 2.18
O=C1CCCCC1 [Cyclohexanone] | 0.75
CC(C)(C)c1ccc(CCC=O)cc1 [bourgeonal] | 0.746
CCC1(O)C2(C)CCC(C2)C1(C)C (stereo not drawn) [2-ethylfenchol] | 0.852
COC(=O)c1ccccc1 [methyl benzoate] | 0.775
CC12CCC(CC1)C(C)(C)O2 [cineole] | 0.857
CC1=NC(C)SC1C (stereo not drawn) | 1.04
CC=Cc1ccc(O)c(OC)c1 [isoeugenol] | 1.19
CCCCCOC(C)=O [n-amyl acetate] | 0.767
c1cnccn1 [pyrazine] | 1.15
C=C(C)C1CC=C(C)C(=O)C1 (stereo not drawn) [r-carvone] | 1.07
C=CC(C)(O)CCC=C(C)C (stereo not drawn) [linalool] | 1.19
CC(C)=CCCC(C)=CC=O [citral] | 0.914
CC(=O)c1ccccc1 [acetophenone] | 1.42
CCCCCC(=O)O [caproic acid] | 0.876
CCCCCCOC(=O)CCC [hexyl butyrate] | 1.56
CC1CCC(C(C)C)C(O)C1 (single isomer, unassigned; (+)) [(+)-menthol] | 1.22
CC(C)CCC(=O)O [4-methylvaleric acid] | 0.796
CC12C=CCC1C1CCC3=CC(=O)CCC3(C)C1CC2 (stereo not drawn) [androstadienone] | 1.24
